Data from patent US20160046716A1 (Dana-Farber, published 2016).
These are yes or no findings as the source states them, for the method shown. Binding calls can cover weak binding; strength is not graded here.

Molecular target: MICA*019 (Homo sapiens)
Assay: Luminex bead assay (One Lambda kit), PE anti-human IgG secondary; bars assigned by their order in the legend box

B1: MICA-Ab20 (antibody, V domains shown)
VH: QVQLQQWGAGLLKPSETLALTCAVSGGSFTDHYWSWIRQAPGKGLEWIGEINHSGVTNYNPSLKSRLTISVDTSKSQFSLRLTSVTAADTALYYCAKTGLYYDDVWGTFRPRGGFDSWGQGTLVTVSS
VL: DIVMTQSPDSLAVSLGERATINCKSSQSILYSSDNKNYLAWYQHKPGQPPKLLFYWASIRESGVPDRFSGGGSGTDFTLTISSLQAEDVAVYYCQQYYSPPCSFGQGTKLEIQ
notes: also called anti-MICA antibody ID-1; antibody ID 1
- binding: binds
